This note sets out measurements from article PMC5435354.

The target of experiment [1] is T1, PAD4-GFP (UniProt Q9S745).
T1 sequence: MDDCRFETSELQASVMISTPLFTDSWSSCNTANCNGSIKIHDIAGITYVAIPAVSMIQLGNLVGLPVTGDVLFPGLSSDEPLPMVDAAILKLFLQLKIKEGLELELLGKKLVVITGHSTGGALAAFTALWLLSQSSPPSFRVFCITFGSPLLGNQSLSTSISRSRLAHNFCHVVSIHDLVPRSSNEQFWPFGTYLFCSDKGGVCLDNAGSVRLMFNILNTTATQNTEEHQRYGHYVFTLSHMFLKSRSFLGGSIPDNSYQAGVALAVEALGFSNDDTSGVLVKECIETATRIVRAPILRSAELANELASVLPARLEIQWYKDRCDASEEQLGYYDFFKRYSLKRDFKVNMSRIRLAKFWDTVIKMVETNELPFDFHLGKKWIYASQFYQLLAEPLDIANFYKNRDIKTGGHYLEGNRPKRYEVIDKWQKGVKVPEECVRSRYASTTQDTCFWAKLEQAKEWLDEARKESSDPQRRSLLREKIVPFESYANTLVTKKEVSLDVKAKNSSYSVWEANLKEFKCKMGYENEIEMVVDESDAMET
In words: co-IP.

Experiment [2] concerns the target T2, GFP-EDS1 (Enhanced disease susceptibility 1, GFP-tagged) (UniProt Q9SU72).
T2 sequence: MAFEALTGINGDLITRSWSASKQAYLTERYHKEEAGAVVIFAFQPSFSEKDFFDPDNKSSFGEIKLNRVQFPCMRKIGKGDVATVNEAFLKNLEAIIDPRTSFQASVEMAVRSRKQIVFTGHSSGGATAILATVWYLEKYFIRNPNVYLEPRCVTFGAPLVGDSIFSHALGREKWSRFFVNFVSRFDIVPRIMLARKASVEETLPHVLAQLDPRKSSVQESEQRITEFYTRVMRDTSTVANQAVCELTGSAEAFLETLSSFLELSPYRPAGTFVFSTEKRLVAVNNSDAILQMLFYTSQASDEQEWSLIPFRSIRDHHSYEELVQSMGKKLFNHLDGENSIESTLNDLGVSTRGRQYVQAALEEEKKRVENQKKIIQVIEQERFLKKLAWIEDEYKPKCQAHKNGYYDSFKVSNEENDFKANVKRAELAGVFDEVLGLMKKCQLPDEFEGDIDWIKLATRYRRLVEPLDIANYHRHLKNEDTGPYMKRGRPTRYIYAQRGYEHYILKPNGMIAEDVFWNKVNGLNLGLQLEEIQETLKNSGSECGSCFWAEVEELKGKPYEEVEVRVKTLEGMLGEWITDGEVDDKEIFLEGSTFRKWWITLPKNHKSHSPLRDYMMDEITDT
As to the kind of experiment: co-IP.

These are yes or no findings as the source states them, for the method shown. In cells and extracts the contact can be indirect. Some results given as binding are weak or reduced against the parent protein; the word gives no strength. Where a sequence is shown, tags or fusion partners need not be part of it.

B1: Myc-EDS1 (N-terminally Myc-tagged EDS1) (protein, UniProt Q9SU72 1-623)
chain: MAFEALTGINGDLITRSWSASKQAYLTERYHKEEAGAVVIFAFQPSFSEKDFFDPDNKSSFGEIKLNRVQFPCMRKIGKGDVATVNEAFLKNLEAIIDPRTSFQASVEMAVRSRKQIVFTGHSSGGATAILATVWYLEKYFIRNPNVYLEPRCVTFGAPLVGDSIFSHALGREKWSRFFVNFVSRFDIVPRIMLARKASVEETLPHVLAQLDPRKSSVQESEQRITEFYTRVMRDTSTVANQAVCELTGSAEAFLETLSSFLELSPYRPAGTFVFSTEKRLVAVNNSDAILQMLFYTSQASDEQEWSLIPFRSIRDHHSYEELVQSMGKKLFNHLDGENSIESTLNDLGVSTRGRQYVQAALEEEKKRVENQKKIIQVIEQERFLKKLAWIEDEYKPKCQAHKNGYYDSFKVSNEENDFKANVKRAELAGVFDEVLGLMKKCQLPDEFEGDIDWIKLATRYRRLVEPLDIANYHRHLKNEDTGPYMKRGRPTRYIYAQRGYEHYILKPNGMIAEDVFWNKVNGLNLGLQLEEIQETLKNSGSECGSCFWAEVEELKGKPYEEVEVRVKTLEGMLGEWITDGEVDDKEIFLEGSTFRKWWITLPKNHKSHSPLRDYMMDEITDT
For B1, the binding result in experiment [1] was “binds”.

B2: EDS1-Myc (C-terminally Myc-tagged EDS1) (protein, UniProt Q9SU72 1-623)
chain: MAFEALTGINGDLITRSWSASKQAYLTERYHKEEAGAVVIFAFQPSFSEKDFFDPDNKSSFGEIKLNRVQFPCMRKIGKGDVATVNEAFLKNLEAIIDPRTSFQASVEMAVRSRKQIVFTGHSSGGATAILATVWYLEKYFIRNPNVYLEPRCVTFGAPLVGDSIFSHALGREKWSRFFVNFVSRFDIVPRIMLARKASVEETLPHVLAQLDPRKSSVQESEQRITEFYTRVMRDTSTVANQAVCELTGSAEAFLETLSSFLELSPYRPAGTFVFSTEKRLVAVNNSDAILQMLFYTSQASDEQEWSLIPFRSIRDHHSYEELVQSMGKKLFNHLDGENSIESTLNDLGVSTRGRQYVQAALEEEKKRVENQKKIIQVIEQERFLKKLAWIEDEYKPKCQAHKNGYYDSFKVSNEENDFKANVKRAELAGVFDEVLGLMKKCQLPDEFEGDIDWIKLATRYRRLVEPLDIANYHRHLKNEDTGPYMKRGRPTRYIYAQRGYEHYILKPNGMIAEDVFWNKVNGLNLGLQLEEIQETLKNSGSECGSCFWAEVEELKGKPYEEVEVRVKTLEGMLGEWITDGEVDDKEIFLEGSTFRKWWITLPKNHKSHSPLRDYMMDEITDT
As to B2, in experiment [1], the binding result is reported as “binds”.

B3: RPS4-HF (RPS4 with 3xHis-6xFLAG tag) (protein, UniProt Q9XGM3 1-1217)
chain: METSSISTVEDKPPQHQVFINFRGADLRRRFVSHLVTALKLNNINVFIDDYEDRGQPLDVLLKRIEESKIVLAIFSGNYTESVWCVRELEKIKDCTDEGTLVAIPIFYKLEPSTVRDLKGKFGDRFRSMAKGDERKKKWKEAFNLIPNIMGIIIDKKSVESEKVNEIVKAVKTALTGIPPEGSHNAVVGALGNSNAGTSSGDKKHETFGNEQRLKDLEEKLDRDKYKGTRIIGVVGMPGIGKTTLLKELYKTWQGKFSRHALIDQIRVKSKHLELDRLPQMLLGELSKLNHPHVDNLKDPYSQLHERKVLVVLDDVSKREQIDALREILDWIKEGKEGSRVVIATSDMSLTNGLVDDTYMVQNLNHRDSLQLFHYHAFIDDQANPQKKDFMKLSEGFVHYARGHPLALKVLGGELNKKSMDHWNSKMKKLAQSPSPNIVSVFQVSYDELTTAQKDAFLDIACFRSQDKDYVESLLASSDLGSAEAMSAVKSLTDKFLINTCDGRVEMHDLLYKFSREVDLKASNQDGSRQRRLWLHQHIIKGGIINVLQNKMKAANVRGIFLDLSEVEDETSLDRDHFINMGNLRYLKFYNSHCPQECKTNNKINIPDKLKLPLKEVRCLHWLKFPLETLPNDFNPINLVDLKLPYSEMEQLWEGDKDTPCLRWVDLNHSSKLCSLSGLSKAEKLQRLNLEGCTTLKAFPHDMKKMKMLAFLNLKGCTSLESLPEMNLISLKTLTLSGCSTFKEFPLISDNIETLYLDGTAISQLPMNMEKLQRLVVLNMKDCKMLEEIPGRVGELKALQELILSDCLNLKIFPEIDISFLNILLLDGTAIEVMPQLPSVQYLCLSRNAKISCLPVGISQLSQLKWLDLKYCTSLTSVPEFPPNLQCLDAHGCSSLKTVSKPLARIMPTEQNHSTFIFTNCENLEQAAKEEITSYAQRKCQLLSYARKRYNGGLVSESLFSTCFPGCEVPSWFCHETVGSELEVKLLPHWHDKKLAGIALCAVVSCLDPQDQVSRLSVTCTFKVKDEDKSWVAYTCPVGSWTRHGGGKDKIELDHVFIGYTSCPHTIKCHEEGNSDECNPTEASLKFTVTGGTSENGKYKVLKCGLSLVYAKDKDKNSALETKYDMLIGKSFQETSEGVDGRVKKTKGKYVMPVEKNFQETTEGVDGRVNKKKKTRMDNGRPKKKQRSGRDDNQTRMQVELQEGNINSVIMHTVKNF
Consider B3, for which the binding result in experiment [2] is “binds”.

B4: RPS4-HA (Resistance to Pseudomonas syringae 4, HA-tagged) (protein, UniProt Q9XGM3 1-1217)
chain: METSSISTVEDKPPQHQVFINFRGADLRRRFVSHLVTALKLNNINVFIDDYEDRGQPLDVLLKRIEESKIVLAIFSGNYTESVWCVRELEKIKDCTDEGTLVAIPIFYKLEPSTVRDLKGKFGDRFRSMAKGDERKKKWKEAFNLIPNIMGIIIDKKSVESEKVNEIVKAVKTALTGIPPEGSHNAVVGALGNSNAGTSSGDKKHETFGNEQRLKDLEEKLDRDKYKGTRIIGVVGMPGIGKTTLLKELYKTWQGKFSRHALIDQIRVKSKHLELDRLPQMLLGELSKLNHPHVDNLKDPYSQLHERKVLVVLDDVSKREQIDALREILDWIKEGKEGSRVVIATSDMSLTNGLVDDTYMVQNLNHRDSLQLFHYHAFIDDQANPQKKDFMKLSEGFVHYARGHPLALKVLGGELNKKSMDHWNSKMKKLAQSPSPNIVSVFQVSYDELTTAQKDAFLDIACFRSQDKDYVESLLASSDLGSAEAMSAVKSLTDKFLINTCDGRVEMHDLLYKFSREVDLKASNQDGSRQRRLWLHQHIIKGGIINVLQNKMKAANVRGIFLDLSEVEDETSLDRDHFINMGNLRYLKFYNSHCPQECKTNNKINIPDKLKLPLKEVRCLHWLKFPLETLPNDFNPINLVDLKLPYSEMEQLWEGDKDTPCLRWVDLNHSSKLCSLSGLSKAEKLQRLNLEGCTTLKAFPHDMKKMKMLAFLNLKGCTSLESLPEMNLISLKTLTLSGCSTFKEFPLISDNIETLYLDGTAISQLPMNMEKLQRLVVLNMKDCKMLEEIPGRVGELKALQELILSDCLNLKIFPEIDISFLNILLLDGTAIEVMPQLPSVQYLCLSRNAKISCLPVGISQLSQLKWLDLKYCTSLTSVPEFPPNLQCLDAHGCSSLKTVSKPLARIMPTEQNHSTFIFTNCENLEQAAKEEITSYAQRKCQLLSYARKRYNGGLVSESLFSTCFPGCEVPSWFCHETVGSELEVKLLPHWHDKKLAGIALCAVVSCLDPQDQVSRLSVTCTFKVKDEDKSWVAYTCPVGSWTRHGGGKDKIELDHVFIGYTSCPHTIKCHEEGNSDECNPTEASLKFTVTGGTSENGKYKVLKCGLSLVYAKDKDKNSALETKYDMLIGKSFQETSEGVDGRVKKTKGKYVMPVEKNFQETTEGVDGRVNKKKKTRMDNGRPKKKQRSGRDDNQTRMQVELQEGNINSVIMHTVKNF
As to B4, the binding result in experiment [2] is “binds”.
